Measured values reported in PubChem BioAssay AID493014 (National Center for Advancing Translational Sciences (NCATS), 2011).
About 170 (0.05%) of roughly 340,000 compounds were called active. The shares of active, inactive and inconclusive entries below differ from those in the screen. Calls follow the shape of the dose curve; as a rule, active = well fitted inhibition curve with a large enough effect in the signal ratio, with a control signal flat (not every such curve was filed as active); inconclusive = small, poorly fitted or top-dose-only effect, or effect the other way, or a change in a side signal; inactive = flat fitted curve, though single readings scatter; the % refers to the signal ratio. A potency beside an inconclusive call is a rough fit, not a confirmed value.

Experiment: qHTS Assay to Find Inhibitors of Chronic Active B-Cell Receptor Signaling;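 as to activity change, negative = inhibition: plate controls were basal doxycycline-induced cells for no effect and cells given 10 µM MG132 for full effect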
Conditions: ABC-DLBCL IkBa-CBG/CBR reporter, luminescence ratio (green luciferase fused to IkBa over red control in TMD8 lymphoma cells), 4 h; activity change, negative = inhibition: at 46.1 µM (top of the series) unless noted
Summary of the method: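 Compounds up to 46 uM were incubated four hours with TMD8 cells whose green CBG68 luciferase is fused to IkappaBalpha; red CBR luminescence normalised the signal, and concentration-effect curves were fitted to fusion, red and ratio data.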
Potency is read from the fitted curve at half-maximal effect.

SMILES	activity change, negative = inhibition	Potency
Cc1cc(=O)[nH]c(SCC(=O)OCc2ccccc2)c1C#N	inconclusive: 9.46%	
Cc1csc(NC(=O)CSc2nc3[nH]ncc3c(=O)[nH]2)n1	inconclusive: 17.8%	
COc1ccc(-c2nc(N)nc(N)n2)c(O)c1	inconclusive: 0.452%	
CN1CCN(C(c2ccc(Cl)cc2)c2cc(Cl)c3cccnc3c2O)CC1 (centres undefined)		inconclusive: 12.6 µM [falling, partial curve]
Cc1c(C(=O)NCCn2ccc3ccccc32)cccc1[N+](=O)[O-]		inconclusive: 35.5 µM [falling, partial curve, poor fit]
CCc1ccccc1NC(=O)C(C#N)Cc1cccnc1 (centres undefined)	inconclusive: -7.83%	
O=[N+]([O-])c1c(NCCCO)cc(Sc2ccc(Cl)cc2)c2nonc12	inconclusive: 7.58%	
CC1=C(C(=O)Nc2ccccc2)C(c2ccc(F)cc2)n2nc(SCc3cc(C)ccc3C)nc2N1 (centres undefined)		inconclusive: 25.1 µM [falling, single point]
Cc1cc(C)n(-c2nc3ccccc3c(=O)n2OCC(=O)Nc2c(C)cccc2C)n1	inconclusive: 0.225%	
Cc1cc(C)n(-c2cc(C(C)(C)C)nc3c(-c4ccccc4)cnn23)n1	inactive	
Cc1c(N=C2NC(=O)C(CC(=O)Nc3ccccc3)S2)c(=O)n(-c2ccccc2)n1C (centres undefined)	inconclusive: -0.742%	
CC(C)(C)C(=O)NC(=S)Nc1ccc(Cl)c(C(=O)O)c1	inactive	
COc1cc(NC(=O)C2CCC(CNc3c(N4CCC(C)CC4)c(=O)c3=O)CC2)cc(OC)c1 (centres undefined)		inconclusive: 0.00517 µM [falling, full curve, poor fit]
CC(=O)Nc1ccc(NS(=O)(=O)c2ccc3c(c2)n(C)c(=O)n3C)cc1	inactive	
NNc1ccc2nnc(C(F)(F)C(F)(F)C(F)(F)F)n2n1	inactive	
O=C(O)/C=C/C(=O)Nc1ccccc1SC(F)(F)C(F)(F)C(F)(F)F	inconclusive: 11.3%	
CN(C)c1cccc(C(=O)Nc2ccc(N3CCOCC3)cc2)c1		inconclusive: 16.4 µM [falling, partial curve]
CC(C)N(C)C1CCN(C(=O)Nc2ccc(Cl)cc2)CC1	inconclusive: 16.8%	
O=C(C(NS(=O)(=O)c1cccc2nsnc12)c1ccccc1)N1CCN(c2ccccc2)CC1 (centres undefined)	inconclusive: 18.1%	
CCOC(=O)c1ccccc1NC(=S)N1CCCCC1	inconclusive: 1.15%	
CCn1cc(C(=O)OCC(=O)c2cc(C)n(-c3ccccc3)c2C)c(=O)c2ccc(C)nc21	inconclusive: -0.553%	
CC(=O)c1c(C)[nH]c(C(=O)NCc2cccc(Cl)c2)c1C	inconclusive: 8.32%	
Cc1ccc(NC(=O)C(=O)NCc2ccc(/C=N/NC(=O)c3c(C)nc4cc(C)ccn34)o2)cc1		inconclusive: 2.31 µM [falling, partial curve, poor fit]
Cc1ccc(CSc2ncn(-c3ccccc3)n2)cc1	inconclusive: 5.77%	
CC(C)(C)c1csc(NC(=O)c2ccc3nccnc3c2)n1	inconclusive: 2.87%	
CSc1ccccc1NC(=O)c1ccc(Br)o1		inconclusive: 1.46 µM [falling, partial curve, poor fit]
Cc1onc(-c2ccccc2)c1-c1n[nH]c(=S)n1-c1ccccc1Cl	inactive	

SMILES	activity change, negative = inhibition	Potency
O=C(COC(=O)c1n[nH]c2ccccc12)NCCc1ccc(Cl)cc1		inconclusive: 20.6 µM [falling, partial curve]
O=C(NCc1ccc2c(c1)CCN2C(=O)c1ccc(F)cc1)c1c(F)cccc1F		inconclusive: 35.5 µM [falling, single point]
CSC1=NC(C(Cl)(Cl)Cl)N=C(c2ccc(C)cc2)N1 (centres undefined)		inconclusive: 6.31 µM [falling, single point]
CC(C)(C)CC(C)(C)NCC(=O)Nc1c2c(nc3ccccc13)CCC2	inconclusive: -0.606%	
COc1ccc(CCNC(=O)c2cc(-c3ccc(C)c(C)c3O)n[nH]2)cc1OC	inconclusive: 6.33%	
COc1cc(/C=N/O)ccc1Oc1ccc([N+](=O)[O-])cc1[N+](=O)[O-]	inconclusive: -49.9%	
CCCNCCC(c1ccco1)c1ccccc1OC (centres undefined)	inconclusive: 15.6%	
CCOC(=O)c1sc2nc3n(c(=O)c2c1C)CCC3	inconclusive: 7.06%	
COc1cc([N+](=O)[O-])ccc1NC(=O)N1CCCCCC1	inconclusive: 21.7%	
N#CCCN(Cc1ccccc1)C(=O)c1nccnc1C(=O)O	inactive	
COc1ccc(Cl)cc1Nc1nc(N)nc(C(F)(F)F)n1	inconclusive: 12.7%	
Cc1ccnc(Nc2nc(-c3ccc(F)cc3)cs2)c1		inconclusive: 31.6 µM [falling, partial curve]
COc1cc2ncnc(NCc3cccc(Cl)c3)c2cc1OC	inconclusive: -5.79%	
COC(=O)c1sc2ccccc2c1-n1cccc1C(=O)C(=O)Nc1ccc(Cl)cc1	inconclusive: -13.2%	
O=C(Nc1nnc(-c2ccccc2SCc2ccccc2F)s1)Nc1ccccc1F		inconclusive: 0.206 µM [rising, full curve, poor fit]
Cc1cc(C)n(C(=O)CN2C(=O)CCC2=O)n1	inconclusive: -1.22%	
CCCCn1c2ccc(C)cc2c2nnc(SCCN3CCCCC3)nc21	inconclusive: 12.9%	
COc1ccc([N+](=O)[O-])cc1N(CC(O)CN(CC(C)C)CC(C)C)S(=O)(=O)c1ccc(C)cc1 (centres undefined)	inconclusive: 5.79%	
CC(OC(=O)c1cccc(S(=O)(=O)Nc2cccc(C(F)(F)F)c2)c1)C(=O)Nc1ccc2c(c1)OCCO2 (centres undefined)	inconclusive: -4.51%	
COc1ccccc1OCC#CCSc1ncccn1		inconclusive: 31.6 µM [rising, single point]
Cc1nccn1-c1ccc(C(F)(F)F)cc1[N+](=O)[O-]	inconclusive: 7.6%	
CCCCNC(=O)c1cccc(NC(=O)C(=O)c2ccccc2NC(C)=O)c1	inconclusive: 2.84%	
COc1ccc(C)cc1NC(=O)Cn1c(=O)oc2cc(S(=O)(=O)N3CCCCCC3)ccc21	inactive	
O=C(COC(=O)CNC(=O)c1ccc(Br)o1)Nc1ccccc1OC(F)F	inconclusive: 3.92%	
CN(C)CCCNC(NC(=O)c1cccs1)C(Cl)(Cl)Cl (centres undefined)	inconclusive: -21.6%	
COc1cc2c(cc1OC)C(C1C(=O)CC(C)(C)CC1=O)N(C(=O)CCl)CC2 (centres undefined)	inactive	
COc1ccc(/C=C/C(=O)c2ccccc2)cc1COc1ccccc1F		inconclusive: 35.5 µM [falling, single point]

SMILES	activity change, negative = inhibition	Potency
Nc1cc2c(cc1C(=O)c1ccc(Cl)cc1)OCCO2		inconclusive: 7.31 µM [falling, partial curve, poor fit]
CC(=O)Nc1ccc(NC(=O)CSc2ncc(C(=O)Nc3ccccc3)c(=O)n2C)cc1		inconclusive: 2.91 µM [falling, partial curve]
CCOc1ccccc1N=NC1C(=O)N(C(N)=S)N=C1C (centres undefined)		inconclusive: 1.41 µM [falling, full curve, poor fit]
CC(=O)Nc1ccc(N2CCN(c3ccc(F)cc3)CC2)cc1	inconclusive: 6.12%	
COc1ccc(C(=O)N2CCN(C3CCC(c4ccccc4)CC3)CC2)cc1OC (centres undefined)	inactive	
O=C(NC1CCCC1)C(c1cccnc1)N(CCc1ccccc1)C(=O)c1ccco1 (centres undefined)	inactive	
COc1ccccc1NC(=O)CSCC(=O)N1c2ccccc2CCc2ccccc21	inconclusive: 2.39%	
NNc1nc2ccc(F)cc2s1	inconclusive: -7.94%	
CN(c1cccc(NC(=O)CN(c2cccc(Cl)c2)S(=O)(=O)c2ccc(Cl)cc2)c1)S(C)(=O)=O	inconclusive: -0.16%	
CC(=O)Nc1cccc(OCC(=O)Nc2sccc2C(N)=O)c1	inconclusive: -10.5%	
c1ccc2c(c1)OCC(CNc1ncnc3sccc13)O2 (centres undefined)	inactive	
COc1ccc(-c2cc(C(F)(F)F)nc(S(=O)(=O)CCCC(=O)Nc3cc(C)on3)n2)cc1OC		inconclusive: 35.5 µM [rising, single point]
Cc1cc(C(C)(C)C)oc1C(=O)N(CC(=O)NC1CCCC1)Cc1ccccc1Cl	inconclusive: 17.1%	
COc1ccc2nc(NC(=O)Cc3cccs3)sc2c1	inconclusive: -16%	
O=C(COc1ccc(Br)cc1CO)Nc1ccccc1F		inconclusive: 17.8 µM [falling, partial curve]
Cc1cc(C(=O)NNC2CC(=O)N(c3ccc4ccccc4c3)C2=O)c(C)o1 (centres undefined)		inconclusive: 12.6 µM [falling, partial curve]
CCCN1CNc2c(c(=O)[nH]c(=S)n2-c2ccc(Cl)cc2)C1	inactive	
COc1ccc(Oc2nnc(C)c3ccccc23)cc1	inconclusive: 16.2%	
CN(C(=O)n1cnc2ccccc21)c1ccccc1	inconclusive: 5.8%	
O=C1/C(=C\c2cccnc2)Sc2ccccc21		inconclusive: 1.3 µM [falling, full curve, poor fit]
S=c1[nH]nc(-c2ccc3ccccc3n2)n1-c1cc(Cl)cc(Cl)c1	inactive	
COc1ccc(NC(=O)CN(c2ccc(C)cc2)S(=O)(=O)c2c(C)nn(C)c2C)cc1OC	inactive	
COC(=O)CSc1nc(N)c2c3c(sc2n1)CCCC3		inconclusive: 35.5 µM [falling, single point]
CCOC(=O)C1=C(Cc2ccc(C)cc2)C(=O)c2ccccc2C1=O		inconclusive: 20.6 µM [falling, partial curve, poor fit]
CC1(C)C(c2ccc(Cl)cc2)=[N+]([O-])C2(CCCC/C2=N\O)N1O (centres undefined)	inconclusive: -0.803%	

Entries of single compounds, quoted from the list:
COc1ccc2nc(NC(=O)Cc3cccs3)sc2c1 is entered as activity change, negative = inhibition: inconclusive: -16%
COc1ccc(NC(=O)CN(c2ccc(C)cc2)S(=O)(=O)c2c(C)nn(C)c2C)cc1OC is entered as activity change, negative = inhibition: inactive
Cc1cc(C(C)(C)C)oc1C(=O)N(CC(=O)NC1CCCC1)Cc1ccccc1Cl is entered as activity change, negative = inhibition: inconclusive: 17.1%
